# Test results from the supplement of paper PMC10077471.
# Over roughly 1,900 compounds, “excess over highest single agent (ExcessHSA) synergy score, 6x6 matrix” has its median near -83; the lowest 2% begin near -370. Some of the results follow.
# Test system: NCI-H446
# Experiment: excess over highest single agent (ExcessHSA) synergy score, 6x6 matrix; higher = less synergy (more negative = stronger synergy)
# Settings: 72 h; CellTiter-Glo viability
row,Structure (SMILES),excess over highest single agent
1,CCOC(=O)[C@H](CCc1ccccc1)N[C@H]1CCc2ccccc2N(CC(=O)O)C1=O + Cc1sc2c(c1C)C(c1ccc(Cl)cc1)=N[C@@H](CC(=O)OC(C)(C)C)c1nnc(C)n1-2 [NCGC00250412-19],-36.5
2,C[C@@H](N[C@H]1CCCC[C@@H]1NC(=O)c1ccc(Cl)cc1)c1cccc2ccccc12 + Cc1sc2c(c1C)C(c1ccc(Cl)cc1)=N[C@@H](CC(=O)OC(C)(C)C)c1nnc(C)n1-2 [NCGC00250412-19],-135
3,C[C@]12CC[C@H]3[C@@H](CC[C@@]45O[C@@H]4C(O)=C(C#N)C[C@]35C)[C@@H]1CC[C@@H]2O + Cc1sc2c(c1C)C(c1ccc(Cl)cc1)=N[C@@H](CC(=O)OC(C)(C)C)c1nnc(C)n1-2 [NCGC00250412-19],-25.4
4,C=CC(=O)Nc1cc(NC(=O)c2ccc(C)c(NC(=O)c3ccno3)c2)cc(C(F)(F)F)c1 + Cc1sc2c(c1C)C(c1ccc(Cl)cc1)=N[C@@H](CC(=O)OC(C)(C)C)c1nnc(C)n1-2 [NCGC00250412-19],166
5,COC1=C(OC)C(=O)C(CCCCCCCCCCO)=C(C)C1=O + Cc1sc2c(c1C)C(c1ccc(Cl)cc1)=N[C@@H](CC(=O)OC(C)(C)C)c1nnc(C)n1-2 [NCGC00250412-19],-59.5
6,Cc1nc(NC(=O)N2CCC[C@H]2C(N)=O)sc1-c1csc(C(C)(C)C)n1 + Cc1sc2c(c1C)C(c1ccc(Cl)cc1)=N[C@@H](CC(=O)OC(C)(C)C)c1nnc(C)n1-2 [NCGC00250412-19],-89.5
7,CC(C)C[C@H](CC(=O)O)C(=O)N[C@@H](Cc1c[nH]c2ccccc12)C(=O)N[C@@H](C)c1ccccc1 + Cc1sc2c(c1C)C(c1ccc(Cl)cc1)=N[C@@H](CC(=O)OC(C)(C)C)c1nnc(C)n1-2 [NCGC00250412-19],-48.2
8,CCCCOCCOc1nc(-c2ccc(C(=O)O)c(F)c2)sc1C + Cc1sc2c(c1C)C(c1ccc(Cl)cc1)=N[C@@H](CC(=O)OC(C)(C)C)c1nnc(C)n1-2 [NCGC00250412-19],-217
9,Cc1ccc(C(=O)Nc2ccc(CN3CCN(C)CC3)c(C(F)(F)F)c2)cc1C#Cc1cnc2cccnn12 + Cc1sc2c(c1C)C(c1ccc(Cl)cc1)=N[C@@H](CC(=O)OC(C)(C)C)c1nnc(C)n1-2 [NCGC00250412-19],-162
10,O=C(Nc1cccc2c(=O)cc(-c3nnn[nH]3)oc12)c1ccc(OCCCCc2ccccc2)cc1 + Cc1sc2c(c1C)C(c1ccc(Cl)cc1)=N[C@@H](CC(=O)OC(C)(C)C)c1nnc(C)n1-2 [NCGC00250412-19],-286
11,CC[C@]1(O)C[C@@H]2CN(CCc3c([nH]c4ccccc34)[C@@](C(=O)OC)(c3cc4c(cc3OC)N(C)[C@H]3[C@@](O)(C(N)=O)[C@H](O)[C@]5(CC)C=CCN6CC[C@]43[C@@H]65)C2)C1 + Cc1sc2c(c1C)C(c1ccc(Cl)cc1)=N[C@@H](CC(=O)OC(C)(C)C)c1nnc(C)n1-2 [NCGC00250412-19],-90
12,COc1ccc(Cc2nccc3cc(OC)c(OC)cc23)cc1OC + Cc1sc2c(c1C)C(c1ccc(Cl)cc1)=N[C@@H](CC(=O)OC(C)(C)C)c1nnc(C)n1-2 [NCGC00250412-19],8.39
13,c1ccc(C2CN3CCSC3=N2)cc1 (centres undefined) + Cc1sc2c(c1C)C(c1ccc(Cl)cc1)=N[C@@H](CC(=O)OC(C)(C)C)c1nnc(C)n1-2 [NCGC00250412-19],-139
14,CC(C)(C)c1[nH]cnc1/C=c1\[nH]c(=O)/c(=C/c2ccccc2)[nH]c1=O + Cc1sc2c(c1C)C(c1ccc(Cl)cc1)=N[C@@H](CC(=O)OC(C)(C)C)c1nnc(C)n1-2 [NCGC00250412-19],-172
15,CCCCCCCCCCCCCCCCCCOP(=O)([O-])OC1CC[N+](C)(C)CC1 + Cc1sc2c(c1C)C(c1ccc(Cl)cc1)=N[C@@H](CC(=O)OC(C)(C)C)c1nnc(C)n1-2 [NCGC00250412-19],129
16,O=C(Nc1ccc(OC(F)(F)F)cc1)c1sccc1NCc1ccnc2ccccc12 + Cc1sc2c(c1C)C(c1ccc(Cl)cc1)=N[C@@H](CC(=O)OC(C)(C)C)c1nnc(C)n1-2 [NCGC00250412-19],-134
17,Nc1ncn([C@@H]2O[C@H](CO)[C@@H](O)[C@H]2O)c(=O)n1 + Cc1sc2c(c1C)C(c1ccc(Cl)cc1)=N[C@@H](CC(=O)OC(C)(C)C)c1nnc(C)n1-2 [NCGC00250412-19],-276
18,CC(COc1ccccc1)N(CCCl)Cc1ccccc1 (centres undefined) + Cc1sc2c(c1C)C(c1ccc(Cl)cc1)=N[C@@H](CC(=O)OC(C)(C)C)c1nnc(C)n1-2 [NCGC00250412-19],-72.4
19,CC[C@@H](C)[C@H](NC(=O)[C@H](CC1CCCCC1)NC(=O)c1ccno1)C(=O)N1CCC2(CCc3ccccc32)CC1 + Cc1sc2c(c1C)C(c1ccc(Cl)cc1)=N[C@@H](CC(=O)OC(C)(C)C)c1nnc(C)n1-2 [NCGC00250412-19],-93.4
20,COc1ccc(C(=O)CC2(O)C(=O)Nc3c(Cl)ccc(Cl)c32)cc1 (centres undefined) + Cc1sc2c(c1C)C(c1ccc(Cl)cc1)=N[C@@H](CC(=O)OC(C)(C)C)c1nnc(C)n1-2 [NCGC00250412-19],-308
21,CCCN[C@H]1CCc2nc(N)sc2C1 + Cc1sc2c(c1C)C(c1ccc(Cl)cc1)=N[C@@H](CC(=O)OC(C)(C)C)c1nnc(C)n1-2 [NCGC00250412-19],58.3
22,CC(C)(C)Cn1c(N)nc2ccc(-c3[nH]c(C(C)(C)C)nc3-c3ccc(F)cc3)nc21 + Cc1sc2c(c1C)C(c1ccc(Cl)cc1)=N[C@@H](CC(=O)OC(C)(C)C)c1nnc(C)n1-2 [NCGC00250412-19],63.8
23,CCOC(=O)c1ccc(OC(=O)CCCCCNC(=N)N)cc1 + Cc1sc2c(c1C)C(c1ccc(Cl)cc1)=N[C@@H](CC(=O)OC(C)(C)C)c1nnc(C)n1-2 [NCGC00250412-19],-6.81
24,OCCCNc1cc(-c2ccnc(Nc3cccc(Cl)c3)n2)ccn1 + Cc1sc2c(c1C)C(c1ccc(Cl)cc1)=N[C@@H](CC(=O)OC(C)(C)C)c1nnc(C)n1-2 [NCGC00250412-19],-201

# Laid out differently: entries from further up.
row | Structure (SMILES) | excess over highest single agent
20 | COc1ccc(C(=O)CC2(O)C(=O)Nc3c(Cl)ccc(Cl)c32)cc1 (centres undefined) + Cc1sc2c(c1C)C(c1ccc(Cl)cc1)=N[C@@H](CC(=O)OC(C)(C)C)c1nnc(C)n1-2 [NCGC00250412-19] | -308
21 | CCCN[C@H]1CCc2nc(N)sc2C1 + Cc1sc2c(c1C)C(c1ccc(Cl)cc1)=N[C@@H](CC(=O)OC(C)(C)C)c1nnc(C)n1-2 [NCGC00250412-19] | 58.3
